Test results: patent US11970451B1, “6-(3-hydroxyphenyl)-2-methoxy-4-(3-methylphenyl)nicotinonitrile as an antimicrobial compound” (KING FAISAL UNIVERSITY, priority 2023, dated 2024)
For at least one compound, name, drawing or mass did not settle the structure.

Key:
Test in all cases: Antimicrobial screening by agar dilution
Assay type in all cases: cell-based
Staphylococcus aureus = settings: St. Aereus
Protocol: (§1) The antibacterial properties of the synthesized compound 6-(3-hydroxyphenyl)-2-methoxy-4-(3-methylphenyl)nicotinonitrile were studied by the method of agar dilution. Test solutions of each compound was prepared in concentration of 1% using dimethylformamide as a solvent then they are diluted in physiological solution to obtain the final experimental dilutions 1:100, 1:200, 1:400, 1:800. The effects of these substances are compared with furacillin in a controllable study. The testing microbes used were gram positive bacteria Staphylococcus aureus, gram negative bacteria Pseudomonas aeruginosa and Escherichia coli and Candida albicans fungus. The experiments used for this survey were meat-pentonlu agar (EPA) for cultivation of bacteria and Saburo environment for the fungus. Each experiment used 1 mL of test solution on each plate […]. Two drops of emulsified with microbes feel were added. All experimental samples were taken from the agar after 10, 20, 40, 60 minutes in the environment on the basis of Patrk planted. The bacteria were cultivated at a temperature of 37° C. for 1 day and the mushroom was kept in a thermostat for […] at a temperature of 28° C. Then results were checked.

Pseudomonas aeruginosa = settings: Ps. aeruginosa
Protocol: as §1

Escherichia coli = settings: E. Coli
Protocol: as §1

Candida albicans = system: Candida albicans
Protocol: as §1

[1] = exposure time 10 min, dilution rate 1:100
[2] = exposure time 10 min, dilution rate 1:200
[3] = exposure time 10 min, dilution rate 1:400
[4] = exposure time 10 min, dilution rate 1:800
[5] = exposure time 20 min, dilution rate 1:100
[6] = exposure time 20 min, dilution rate 1:200
[7] = exposure time 20 min, dilution rate 1:400
[8] = exposure time 20 min, dilution rate 1:800
[9] = exposure time 40 min, dilution rate 1:100
[10] = exposure time 40 min, dilution rate 1:200
[11] = exposure time 40 min, dilution rate 1:400
[12] = exposure time 40 min, dilution rate 1:800
[13] = exposure time 60 min, dilution rate 1:100
[14] = exposure time 60 min, dilution rate 1:200
[15] = exposure time 60 min, dilution rate 1:400
[16] = exposure time 60 min, dilution rate 1:800

Q: What does the source list for NC(=O)N/N=C/c1ccc([N+](=O)[O-])o1 [Furacilin]?
A: antimicrobial activity (Staphylococcus aureus; [1]): −; antimicrobial activity (Staphylococcus aureus; [2]): +; antimicrobial activity (Staphylococcus aureus; [3]): +; antimicrobial activity (Staphylococcus aureus; [4]): +; antimicrobial activity (Staphylococcus aureus; [5]): −; antimicrobial activity (Staphylococcus aureus; [6]): +; antimicrobial activity (Staphylococcus aureus; [7]): +; antimicrobial activity (Staphylococcus aureus; [8]): +; antimicrobial activity (Staphylococcus aureus; [9]): −; antimicrobial activity (Staphylococcus aureus; [10]): +; antimicrobial activity (Staphylococcus aureus; [11]): +; antimicrobial activity (Staphylococcus aureus; [12]): +; antimicrobial activity (Staphylococcus aureus; [13]): −; antimicrobial activity (Staphylococcus aureus; [14]): +; antimicrobial activity (Staphylococcus aureus; [15]): +; antimicrobial activity (Staphylococcus aureus; [16]): +; antimicrobial activity (Pseudomonas aeruginosa; [1]): +; antimicrobial activity (Pseudomonas aeruginosa; [2]): +; antimicrobial activity (Pseudomonas aeruginosa; [3]): +; antimicrobial activity (Pseudomonas aeruginosa; [4]): +; antimicrobial activity (Pseudomonas aeruginosa; [5]): +; antimicrobial activity (Pseudomonas aeruginosa; [6]): +; antimicrobial activity (Pseudomonas aeruginosa; [7]): +; antimicrobial activity (Pseudomonas aeruginosa; [8]): +; antimicrobial activity (Pseudomonas aeruginosa; [9]): +; antimicrobial activity (Pseudomonas aeruginosa; [10]): +; antimicrobial activity (Pseudomonas aeruginosa; [11]): +; antimicrobial activity (Pseudomonas aeruginosa; [12]): +; antimicrobial activity (Pseudomonas aeruginosa; [13]): +; antimicrobial activity (Pseudomonas aeruginosa; [14]): +; antimicrobial activity (Pseudomonas aeruginosa; [15]): +; antimicrobial activity (Pseudomonas aeruginosa; [16]): +; antimicrobial activity (Escherichia coli; [1]): −; antimicrobial activity (Escherichia coli; [2]): +; antimicrobial activity (Escherichia coli; [3]): +; antimicrobial activity (Escherichia coli; [4]): +; antimicrobial activity (Escherichia coli; [5]): −; antimicrobial activity (Escherichia coli; [6]): +; antimicrobial activity (Escherichia coli; [7]): +; antimicrobial activity (Escherichia coli; [8]): +; antimicrobial activity (Escherichia coli; [9]): −; antimicrobial activity (Escherichia coli; [10]): +; antimicrobial activity (Escherichia coli; [11]): +; antimicrobial activity (Escherichia coli; [12]): +; antimicrobial activity (Escherichia coli; [13]): −; antimicrobial activity (Escherichia coli; [14]): +; antimicrobial activity (Escherichia coli; [15]): +; antimicrobial activity (Escherichia coli; [16]): +; antimicrobial activity (Candida albicans; [1]): −; antimicrobial activity (Candida albicans; [2]): +; antimicrobial activity (Candida albicans; [3]): +; antimicrobial activity (Candida albicans; [4]): +; antimicrobial activity (Candida albicans; [5]): −; antimicrobial activity (Candida albicans; [6]): +; antimicrobial activity (Candida albicans; [7]): +; antimicrobial activity (Candida albicans; [8]): +; antimicrobial activity (Candida albicans; [9]): +; antimicrobial activity (Candida albicans; [10]): +; antimicrobial activity (Candida albicans; [11]): +; antimicrobial activity (Candida albicans; [12]): +; antimicrobial activity (Candida albicans; [13]): +; antimicrobial activity (Candida albicans; [14]): +; antimicrobial activity (Candida albicans; [15]): +; antimicrobial activity (Candida albicans; [16]): +
